Our source for the binding values is article PMC1308830.

Chains of the proteins cited; added tags and fusions are not shown. Residues count along the entry.
UniProt Q63369, residues 1-483: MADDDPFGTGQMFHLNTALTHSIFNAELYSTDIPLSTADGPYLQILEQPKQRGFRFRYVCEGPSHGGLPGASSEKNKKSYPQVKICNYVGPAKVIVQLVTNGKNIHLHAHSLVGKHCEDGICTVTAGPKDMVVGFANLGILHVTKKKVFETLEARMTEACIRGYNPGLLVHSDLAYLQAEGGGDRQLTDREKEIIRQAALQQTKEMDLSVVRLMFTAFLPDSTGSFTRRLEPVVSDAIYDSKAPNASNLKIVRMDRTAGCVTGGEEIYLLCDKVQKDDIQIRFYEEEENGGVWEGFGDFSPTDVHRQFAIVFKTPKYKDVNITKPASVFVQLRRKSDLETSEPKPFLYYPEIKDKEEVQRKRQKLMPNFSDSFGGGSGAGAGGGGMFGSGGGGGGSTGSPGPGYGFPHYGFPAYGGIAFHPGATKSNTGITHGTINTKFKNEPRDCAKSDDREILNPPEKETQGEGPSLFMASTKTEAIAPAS
UniProt Q7TQN4: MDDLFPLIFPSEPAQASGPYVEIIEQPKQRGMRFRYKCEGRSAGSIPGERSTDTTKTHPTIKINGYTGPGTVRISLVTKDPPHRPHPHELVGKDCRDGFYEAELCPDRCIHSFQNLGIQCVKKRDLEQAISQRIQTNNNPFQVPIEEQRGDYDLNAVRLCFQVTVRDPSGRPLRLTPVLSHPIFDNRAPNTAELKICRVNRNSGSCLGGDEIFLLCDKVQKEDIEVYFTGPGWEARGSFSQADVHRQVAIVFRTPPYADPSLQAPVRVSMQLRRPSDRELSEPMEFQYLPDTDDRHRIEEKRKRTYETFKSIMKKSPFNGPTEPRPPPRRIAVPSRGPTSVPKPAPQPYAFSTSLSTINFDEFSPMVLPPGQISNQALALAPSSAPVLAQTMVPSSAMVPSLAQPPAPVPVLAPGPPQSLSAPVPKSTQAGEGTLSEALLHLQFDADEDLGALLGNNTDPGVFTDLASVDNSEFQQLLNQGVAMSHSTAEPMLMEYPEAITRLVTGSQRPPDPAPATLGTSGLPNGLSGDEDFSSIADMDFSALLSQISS

These are yes or no findings as the source states them, for the method shown. Some entries that bind do so weakly or less than the wild type.

The target of test [1] is NF-κB p50 (rat (endogenous in primary hepatic stellate cells)) (UniProt Q63369). Put plainly: native gel or EMSA; supershift: pre-assembled gel shift complexes of 8 μg nuclear extract of CCN2-treated rat HSC with 32P-labelled NF-κB oligonucleotide, incubated with 2 μg rabbit polyclonal anti-p65 and/or anti-p50 IgG for 2 h at 4°C, 8% polyacrylamide gel; the dimers are seen bound to DNA.

For test [2], the target named is NF-κB p65 (rat (endogenous in primary hepatic stellate cells)) (UniProt Q7TQN4). The test is described as above.

Take NF-κB p50 (from UniProt Q63369 1-483): the binding entry in test [1] and in test [2] was “binds” throughout. In the case of NF-κB p65 (from UniProt Q7TQN4 1-550), the binding result in test [2] is given as “binds”.
